{"sequences": {"note": "By UniProt entry, the sequences of proteins in these tests, tags left out. Where a name states a change or a piece, a line headed by the entry shows the natural chain unless it says otherwise.", "UniProt P62814": "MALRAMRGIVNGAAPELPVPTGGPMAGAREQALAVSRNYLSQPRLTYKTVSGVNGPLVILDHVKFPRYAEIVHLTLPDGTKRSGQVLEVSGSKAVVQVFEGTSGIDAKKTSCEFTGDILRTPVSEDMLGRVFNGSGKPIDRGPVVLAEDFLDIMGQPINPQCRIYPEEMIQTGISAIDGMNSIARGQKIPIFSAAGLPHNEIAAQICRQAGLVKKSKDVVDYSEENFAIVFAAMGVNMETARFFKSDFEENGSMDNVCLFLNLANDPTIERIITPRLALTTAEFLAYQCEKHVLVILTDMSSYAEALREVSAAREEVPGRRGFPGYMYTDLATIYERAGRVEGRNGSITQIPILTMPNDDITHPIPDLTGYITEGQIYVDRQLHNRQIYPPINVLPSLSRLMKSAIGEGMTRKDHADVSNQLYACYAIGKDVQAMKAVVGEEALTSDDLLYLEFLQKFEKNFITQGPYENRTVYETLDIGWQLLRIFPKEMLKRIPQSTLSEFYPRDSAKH", "UniProt Q9JHF5": "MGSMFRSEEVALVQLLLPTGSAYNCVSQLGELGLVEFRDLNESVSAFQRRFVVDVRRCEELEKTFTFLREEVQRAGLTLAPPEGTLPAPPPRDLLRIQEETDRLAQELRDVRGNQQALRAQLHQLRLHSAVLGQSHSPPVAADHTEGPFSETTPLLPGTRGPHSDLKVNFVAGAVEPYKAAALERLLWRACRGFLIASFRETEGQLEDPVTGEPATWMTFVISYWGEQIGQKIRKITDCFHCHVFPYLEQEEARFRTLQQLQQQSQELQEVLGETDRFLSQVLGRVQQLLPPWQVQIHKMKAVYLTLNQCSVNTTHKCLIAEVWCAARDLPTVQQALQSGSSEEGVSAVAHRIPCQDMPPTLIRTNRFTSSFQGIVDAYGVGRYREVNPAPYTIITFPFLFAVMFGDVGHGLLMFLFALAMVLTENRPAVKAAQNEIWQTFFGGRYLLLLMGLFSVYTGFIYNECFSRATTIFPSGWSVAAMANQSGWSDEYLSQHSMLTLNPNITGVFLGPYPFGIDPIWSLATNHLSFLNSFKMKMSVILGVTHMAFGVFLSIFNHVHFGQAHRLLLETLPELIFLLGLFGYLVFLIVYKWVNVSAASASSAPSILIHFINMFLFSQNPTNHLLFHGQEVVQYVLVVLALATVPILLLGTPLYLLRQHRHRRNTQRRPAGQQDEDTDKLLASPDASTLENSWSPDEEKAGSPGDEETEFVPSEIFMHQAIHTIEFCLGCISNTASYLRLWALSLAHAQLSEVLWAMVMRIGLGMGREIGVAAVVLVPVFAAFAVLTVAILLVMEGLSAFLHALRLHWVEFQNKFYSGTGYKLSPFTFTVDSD"}, "source": "paper PMC13534531", "target": "HA-V1B2 (HA-tagged V-ATPase V1 domain subunit B2, Atp6v1b2) (mouse) (UniProt P62814)", "assay": "co-IP; anti-HA magnetic beads, HA-V1B2 as bait; lysates of iCas9 MEFs expressing HA-V1B2 and Flag-Voa1, Flag-Voa2 or Flag-Voa3, control or Wdr7, Dmxl1 or Dmxl2 iKO; V1-Vo IP buffer (40 mM HEPES pH 7.4, 150 mM NaCl, 2 mM EDTA, 2.5 mM MgCl2, 5% glycerol, 1% Triton X-100), 2 h at 4 °C; immunoblotting", "note": "Results are given in words; binding and its absence hold for the method and conditions named. In cells and extracts the contact can be indirect. Binding calls can cover weak binding; strength is not graded here.", "data": [{"substance": "Flag-Voa3 (Flag-tagged V-ATPase Vo subunit a3, Atp6v0a3 / Tcirg1) (from UniProt Q9JHF5)", "values": [{"measurement": "binding", "result": "binds"}]}]}
